No constants are given. Whether binding was seen depends on the method and setting. In cells and extracts the contact can be indirect. Some results given as binding are weak or reduced against the parent protein; the word gives no strength.
Key:
[1] = target: endogenous Rad18 (human (endogenous in 293T)) (UniProt Q9NS91); assay: co-IP; lysates of 293T cells transfected with pJM101 or pcDNA3-L1 ORF1-HA; endogenous Rad18 precipitated with anti-Rad18 (A301-340A); blot with anti-hORF1p (SE-6798)
Myc-tagged Rad18 (WT) = Myc-tagged Rad18 (WT) (UniProt Q9NS91); assay: co-IP; reciprocal: lysates of 293T cells co-expressing Rad18-Myc and HA-L1 ORF1p, treated with or without 100 µg RNase A; precipitated with anti-Myc antibody; blot with anti-HA
[2] = target: HA-tagged L1 ORF1p (human) (UniProt Q9UN81); assay: co-IP; lysates of 293T cells co-expressing Myc-tagged Rad18 (WT, ∆6BD or ∆C2) and HA-tagged L1 ORF1p; precipitated with anti-HA (3F10) and protein-G-Sepharose, 4 °C; blot with anti-Myc-tag; lysis buffer 10 mM Tris-HCl pH 8.0, 150 mM NaCl, 1 mM EDTA, 0.1% NP-40

Chains of the proteins cited; added tags and fusions are not shown.
UniProt Q9NS91: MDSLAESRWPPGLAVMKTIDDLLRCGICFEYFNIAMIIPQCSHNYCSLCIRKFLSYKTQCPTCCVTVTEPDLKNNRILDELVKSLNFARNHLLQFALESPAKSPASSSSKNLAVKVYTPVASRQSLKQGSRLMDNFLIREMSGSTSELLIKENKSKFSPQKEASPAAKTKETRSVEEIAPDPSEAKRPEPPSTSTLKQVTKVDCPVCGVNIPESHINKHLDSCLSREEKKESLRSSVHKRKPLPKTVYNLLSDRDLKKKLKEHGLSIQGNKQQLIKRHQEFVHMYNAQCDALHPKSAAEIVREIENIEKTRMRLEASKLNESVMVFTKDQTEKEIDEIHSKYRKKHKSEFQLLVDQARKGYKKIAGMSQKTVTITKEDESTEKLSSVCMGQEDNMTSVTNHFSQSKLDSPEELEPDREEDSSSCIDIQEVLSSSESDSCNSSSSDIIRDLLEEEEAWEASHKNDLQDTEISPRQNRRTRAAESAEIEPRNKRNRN
UniProt Q9UN81: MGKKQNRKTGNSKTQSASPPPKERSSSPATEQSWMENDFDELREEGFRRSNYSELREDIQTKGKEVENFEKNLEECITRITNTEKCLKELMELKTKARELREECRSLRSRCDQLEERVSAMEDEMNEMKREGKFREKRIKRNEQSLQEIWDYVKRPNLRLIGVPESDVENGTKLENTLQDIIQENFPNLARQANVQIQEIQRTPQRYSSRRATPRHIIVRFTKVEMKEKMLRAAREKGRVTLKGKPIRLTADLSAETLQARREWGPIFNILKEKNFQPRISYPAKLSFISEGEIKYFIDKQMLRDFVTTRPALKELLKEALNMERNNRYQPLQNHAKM

binding [1]	binding (Myc-tagged Rad18 (WT))	binding [2]	Substance
binds	binds	–	HA-tagged L1 ORF1p (from UniProt Q9UN81 1-338)
binds	–	–	pJM101-derived ORF1p (from UniProt Q9UN81 1-338)
–	–	binds	Myc-tagged Rad18 (WT) (from UniProt Q9NS91 1-495)
